One substance from publication doi:10.1101/2022.11.15.516651 can be followed below.

Amino acid sequences for entries named in this document (tags omitted). A change or cut given only in a name is not applied to a line headed by its entry. Chains listed by the source or under a name are the forms on record and can include a tag or linker. Residues count along the entry.
FLAG-SLC3A2 WTseq (P08195, residues 66-630): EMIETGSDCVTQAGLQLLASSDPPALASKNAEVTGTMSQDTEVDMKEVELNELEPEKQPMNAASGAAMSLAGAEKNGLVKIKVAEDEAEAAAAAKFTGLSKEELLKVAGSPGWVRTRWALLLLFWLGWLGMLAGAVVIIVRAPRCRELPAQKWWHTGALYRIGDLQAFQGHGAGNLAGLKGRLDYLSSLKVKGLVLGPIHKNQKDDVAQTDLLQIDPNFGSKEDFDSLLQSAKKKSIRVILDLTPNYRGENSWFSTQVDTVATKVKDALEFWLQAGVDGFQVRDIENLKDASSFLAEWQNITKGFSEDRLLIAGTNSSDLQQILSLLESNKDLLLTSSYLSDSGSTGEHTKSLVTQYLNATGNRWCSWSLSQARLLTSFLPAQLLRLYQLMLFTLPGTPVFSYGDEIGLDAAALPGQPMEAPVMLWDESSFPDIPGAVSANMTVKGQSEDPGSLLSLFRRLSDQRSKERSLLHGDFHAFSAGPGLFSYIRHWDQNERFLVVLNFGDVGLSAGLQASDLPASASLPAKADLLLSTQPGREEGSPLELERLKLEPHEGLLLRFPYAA
FLAG-SLC3A2 N365D (P08195, form named): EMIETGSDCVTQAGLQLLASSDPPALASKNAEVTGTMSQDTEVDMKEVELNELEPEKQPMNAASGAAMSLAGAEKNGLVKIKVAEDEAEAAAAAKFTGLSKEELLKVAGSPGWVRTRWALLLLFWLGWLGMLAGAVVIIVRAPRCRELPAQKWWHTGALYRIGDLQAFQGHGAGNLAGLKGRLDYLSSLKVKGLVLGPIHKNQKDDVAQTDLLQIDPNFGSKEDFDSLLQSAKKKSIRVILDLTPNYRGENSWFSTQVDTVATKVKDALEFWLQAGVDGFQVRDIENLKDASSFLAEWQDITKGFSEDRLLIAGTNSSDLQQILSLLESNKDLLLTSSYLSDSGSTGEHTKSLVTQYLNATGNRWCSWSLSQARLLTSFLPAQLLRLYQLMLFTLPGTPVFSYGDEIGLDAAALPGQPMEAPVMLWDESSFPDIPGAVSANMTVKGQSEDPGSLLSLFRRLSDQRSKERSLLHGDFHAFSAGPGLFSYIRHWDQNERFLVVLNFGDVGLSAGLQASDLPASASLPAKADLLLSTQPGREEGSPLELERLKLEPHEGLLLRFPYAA
UniProt P17931: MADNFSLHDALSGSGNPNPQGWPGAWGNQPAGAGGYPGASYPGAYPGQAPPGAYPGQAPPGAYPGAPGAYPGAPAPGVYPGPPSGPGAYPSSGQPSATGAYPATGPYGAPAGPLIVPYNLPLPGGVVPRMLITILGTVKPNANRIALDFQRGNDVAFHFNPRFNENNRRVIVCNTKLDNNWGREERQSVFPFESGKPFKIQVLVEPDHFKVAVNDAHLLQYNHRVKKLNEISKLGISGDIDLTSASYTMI

No constants are given. Whether binding was seen depends on the method and setting. Binding seen in cells or lysates may run through a third protein. Some results given as binding are weak or reduced against the parent protein; the word gives no strength.

Experiment [1] concerns the target FLAG-SLC3A2 N365D (human) (UniProt P08195). Put plainly: co-IP.
In experiment [2] the target is FLAG-SLC3A2 WTseq (human) (UniProt P08195). Put plainly: co-IP.

On to Gal3-488 (from UniProt P17931 1-250), for which the binding entry in experiment [1] and in experiment [2] was “binds” in each case.
